Source: patent US10221213 (dated 2019)

Assay: general procedure: solution-phase peptide synthesis; EDC, HOBt
Conditions: for crude HPLC purity: 210 nm
[1] = late stage modification step, acetate, run 1
[2] = late stage modification step, acetate, run 2

Row | Substance | crude HPLC purity [1] [area %] | crude HPLC purity [2] [area %] | step yield [1] [%] | step yield [2] [%] | step yield (late stage modification step, acetate, run 3) [%] | step yield (late stage modification step, acetate, run 4) [%] | step yield (late stage modification step, tris trifluoroacetate, run 1) [%] | step yield (late stage modification step, tris trifluoroacetate, run 2) | step yield (coupling step, acetate) [%]
1 | D-arginyl-2,6-dimethyl-L-tyrosyl-L-lysyl-L-phenylalaninamide | 84 | 95 | 99 | 95 | 94 | 92 | 34 | adjusted yield of 67% | –
2 | N^2-[(benzyloxy)carbonyl]-N^5-[{[(benzyloxy)carbonyl]amino}{[(benzyloxy)carbonyl]imino}methyl]-D-ornithyl-2,6-dimethyl-L-tyrosyl-N^6-{[(2-chlorobenzyl)oxy]carbonyl}-L-lysyl-L-phenylalaninamide | – | – | – | – | – | – | – | – | 73
3 | N^5-[amino(nitroimino)methyl]-N^2-(tert-butoxycarbonyl)-D-ornithyl-2,6-dimethyl-L-tyrosyl-N^6-{[(2-chlorobenzyl)oxy]carbonyl}-L-lysyl-L-phenylalaninamide | – | – | – | – | – | – | – | – | 90
